{"source": "patent US8158806B2", "about": "“DAT1” (Department of Biotechnology, priority 2004, dated 2012)", "key": {"tubulin": {"biological_target": "tubulin", "assay": "Tubulin binding by fluorescence titration, Scatchard analysis", "parameters": "species or system goat"}, "[1]": {"tested_on": "microtubular protein (MTP)", "assay": "In vitro microtubule polymerization (turbidity) assay", "assay_type": "biochemical, goat", "settings": "1.2 mg/ml MTP, 10, 20, 40 μM DAT1, 37° C., 20 min, FIG. 1"}, "HeLa cells": {"tested_on": "HeLa cells", "assay": "Immunofluorescence assay of microtubule network", "assay_type": "cell-based, Human", "settings": "antitubulin antibody staining, FIG. 2"}}, "note": "At least one compound was matched to its structure with a doubt left.", "data": [{"smiles": "COc1ccc(Nc2nc(N)c(C(=O)c3ccccc3)s2)cc1", "note": "[DAT1, Diaminoketothiazole]", "values": [{"measurement": "Kd", "setting": "tubulin; 24° C., fluorescence titration, Scatchard plot, mean of three experiments, read-out: Kd (Dissociation constant) of binding to tubulin", "value": "2.9 ± 1", "unit": "µM"}, {"measurement": "fluorescence upon incubation with tubulin", "setting": "tubulin; excitation at 374 nm, emission maximum 457 nm, intensity increased with tubulin concentration", "value": "bound to tubulin"}, {"measurement": "effect on microtubule formation (turbidity)", "setting": "[1]", "value": "inhibited microtubule formation in a concentration dependent manner"}, {"measurement": "effect on microtubule network", "setting": "HeLa cells", "value": "microtubule network was destroyed"}]}]}
